The supplement of paper PMC3334620
In all, about 33,000 sequences were measured (“E-score (-0.5 to 0.5)”: median about -0.0014, highest 2% from about 0.25 on). The list shows a part of the results.

Target: T1, Cad1 (UniProt P24813)
T1 sequence: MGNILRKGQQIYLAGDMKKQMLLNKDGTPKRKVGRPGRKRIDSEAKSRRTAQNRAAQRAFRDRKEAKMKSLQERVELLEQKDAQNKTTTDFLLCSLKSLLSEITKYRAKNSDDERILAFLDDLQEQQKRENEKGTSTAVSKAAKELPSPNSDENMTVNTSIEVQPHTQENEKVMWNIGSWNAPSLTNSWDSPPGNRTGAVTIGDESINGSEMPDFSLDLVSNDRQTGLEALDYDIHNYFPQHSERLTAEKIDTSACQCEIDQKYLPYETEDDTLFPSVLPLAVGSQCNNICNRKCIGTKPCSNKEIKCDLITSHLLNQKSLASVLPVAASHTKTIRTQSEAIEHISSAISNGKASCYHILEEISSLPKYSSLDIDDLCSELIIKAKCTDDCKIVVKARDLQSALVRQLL
Test: PBM E-score (8-mer binding enrichment) (E-score (-0.5 to 0.5)); higher = stronger / more preferred TF binding
Conditions: protein concentration: 100 nM; construct: GST-full length
How it was run: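 Each ungapped eight-base word and its reverse complement, pooled, received an E-score from the Universal PBM Analysis Suite. Underlying scans, normalised with masliner, recorded fluorescent anti-GST bound to GST-tagged yeast transcription factors. These were applied at about 100-200 nM to universal all-10-mer Agilent arrays double-stranded by primer extension.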

Point of comparison: GATTGGCC, “PBM E-score” value -0.00913. Against it:
- CAATCACG — higher, 0.0999
- TGTAAGAA — higher, 0.21
- AATAATGG — higher, 0.128
- TAACTAGA — higher, 0.0799
- AACGACTA — higher, 0.112
- AGAGACCA — lower, -0.0203
- TCCGGCAA — higher, 0.0992
- CGAGGTAA — higher, 0.00901
- CTTAGGTA — higher, 0.106
- AACCCGCT — lower, -0.244
- ACTGAATA — higher, 0.0821
- AAATACTT — higher, 0.177
- GGCGTAAC — lower, -0.137
- ATGATACA — higher, 0.091
- ACATACGC — lower, -0.0912
- AGTAGCAT — lower, -0.0141
- AAACTTGA — higher, 0.0474
- ACGCACTC — lower, -0.0595
- AGTTGCAA — higher, 0.0789
- AAGACTCA — lower, -0.153
- ACTTTTCT — higher, 0.0259
- ATGCTGCA — higher, 0.0922
- GCCCCCCA — lower, -0.464
- AAACAGTT — higher, 0.0189
- ACTGCCGA — higher, 0.0319
- CACACAAC — higher, 0.0484
- GCTACAGC — lower, -0.0901
- TAAAGACA — lower, -0.13
- CCACCAAC — higher, 0.084
- CAGGCTGA — lower, -0.125
- CGCCTCTC — lower, -0.412
- GAATGCTC — lower, -0.0426
- ATGACAAT — higher, 0.171
- CTCATAAC — lower, -0.0614
- TCGCTACA — lower, -0.399
- ATGAATGC — higher, 0.103
- ACCGGCGT — higher, 0.0885
- CCCAGTCG — lower, -0.236
- AAACGTAC — higher, 0.0592
- ATGCTACG — higher, 0.104
- TCTCGTAA — higher, 0.118
- GTATTCAC — higher, 0.115
- CCGTGCTA — lower, -0.163
- ACTCAGCC — lower, -0.0931
- AATTTCTG — higher, 0.0718
- AAATTTAA — higher, 0.118
- GAGCATAA — higher, 0.077
- ATACGTAG — higher, 0.00381
- GTTCTGCA — higher, 0.0378
- CAAGCGCA — higher, 0.262
- CTTCTGAC — lower, -0.197
- CCATAGGC — lower, -0.0478
- ACGAGCTG — higher, 0.121
- TGCTCCAA — higher, 0.0768
- ACATGAAC — higher, 0.0635
- ATCACAGG — lower, -0.0203
- TCCTTCCA — lower, -0.151
- CATTATTC — higher, 0.0711
- ATCCTGCG — higher, 0.0649
- ACACAAGG — lower, -0.0552
- ATAGGTCG — lower, -0.125
- GGGAAGAA — lower, -0.0579
- ATGCCCAT — lower, -0.176
- ACTGCACA — higher, 0.0876
- CATCGTCG — lower, -0.235
- AGTCGCCA — lower, -0.158
- CTCTTAAG — lower, -0.0209
- ATCCCCGG — lower, -0.307
- CTTTGAGC — lower, -0.16
- CGAAGACC — lower, -0.0641
- ACTGCACT — higher, 0.0895
- CGCAAAAC — higher, 0.227
- ACGCCTTC — lower, -0.0332
- AGACCTCT — lower, -0.154
- ATAGGTAA — higher, 0.00072
- CTTGAGAC — lower, -0.0953
- CATGACCG — lower, -0.279
- CACGAATG — higher, 0.027
- AGTTAATA — higher, 0.199
- AGACAGCT — higher, 0.0172
- AGGGTGAT — lower, -0.188
- CGAATCGC — higher, 0.0424
- CTCACCGC — lower, -0.141
- GCACCCGC — lower, -0.0522
- CATATATG — higher, 0.154
- CGCAGGAC — lower, -0.0401
- CGCCAATC — higher, 0.0161
- CAAACTCA — higher, 0.0383
- ACCGTCAG — higher, -0.00173
- TAGGGCCA — lower, -0.177
- AAAAGTTG — higher, 0.0367
- TAGGCTGA — lower, -0.0419
- ATTAGTTC — higher, 0.149
- ACCTTTCC — lower, -0.144
- CCCACTCG — lower, -0.151
- CGAGGGGC — lower, -0.323
- CAAGGAAA — lower, -0.186
- ATCGGACG — lower, -0.102
- GGTGAAGA — lower, -0.129
- ACTAGCGG — higher, 0.0551
- ATGCTCCC — lower, -0.24
- GTTTTCCA — higher, 0.0942
- TAGAGTCA — lower, -0.321
- AATGTCAT — higher, 0.132
- AAAAGACT — lower, -0.141
- GACGAGAC — lower, -0.0636
- CGCTCTAA — lower, -0.0685
- TATGTTAA — higher, 0.0579
- GGCCCTGA — lower, -0.0784
- CGCGACTA — higher, 0.204
- GTGACGGA — higher, 0.0478
- CAGCCGGG — lower, -0.0739
- ATACAGCA — higher, 0.121
- TACTTGGA — higher, 0.0975
- GACCCTAA — lower, -0.079
- GAGTTTAA — higher, 0.181
- CGTATTAC — higher, 0.108
- CGCTTGAC — lower, -0.129
- ATTCAGGG — lower, -0.0104
- CGCATTGA — higher, 0.116
- CGGATGAC — higher, 0.111
- CTCTGAAC — lower, -0.212
- GCCAGGGC — lower, -0.0916
- AAGGACTA — lower, -0.0534
- CTCTGCCC — lower, -0.17
- AGCGGGCC — lower, -0.0503
- CGCCCTCC — lower, -0.273
- TACGGTGA — higher, -0.00075
- CACCAGGA — higher, 0.0973
- CCGAACAA — higher, 0.107
- AAGGTTGA — higher, 0.0462
- CTCAGCAG — higher, 0.172
- CGTTCACA — lower, -0.0208
- AATCTAGT — higher, 0.184
- AGGGGGAA — lower, -0.248
- TCAGAAAA — lower, -0.145
- AAGGTCAC — lower, -0.135
- CCCCTCTA — lower, -0.246
- CCTGCTGA — higher, 0.245
- AACTACAG — higher, 0.00279
- GAGCAAGC — higher, -0.00033
- ACTTCTTC — lower, -0.0312
- CAAAGACA — higher, 0.143
- ACGTCCTA — lower, -0.062
- GAACGCAC — higher, 0.0789
- AGGATGCA — higher, 0.0173
- ATCCGTTA — higher, 0.303
- AGTAATCA — higher, 0.297
- GAACCGGA — higher, 0.134
- CGACCGAC — lower, -0.0575
- TGGGCGAA — lower, -0.075
- TATTCGGA — higher, 0.0942
- TCTCAGCA — lower, -0.127
- ACAAATTG — higher, 0.202
- ATATCCGG — higher, 0.162
- CCTGGTTA — lower, -0.0859
- TGGCCACA — higher, 0.0946
- GCTATCAC — higher, 0.0812
- GTACGCGA — lower, -0.0842
- ATGCAGGG — higher, 0.0136
- AAAGCTAA — higher, 0.0006
- GGACCTGA — lower, -0.108
- CGATCGCA — higher, 0.169
- AGGTCCGC — lower, -0.0615
- ACAAATAA — higher, 0.206
- CGCTGGGC — lower, -0.15
- TACGCACA — higher, 0.141
- CAGTCGGG — lower, -0.16
- CCACTCGC — higher, 0.0149
- GCAATTAA — higher, 0.139
- AAGGAGAG — lower, -0.31
